From patent US6613875B1 (The Scripps Research Institute, priority 1993, dated 2003)

Test: general procedure: Boc solid-phase peptide synthesis; PAM resin; BOP/DIEA; cyclisation with TBTU/HOBt/DIEA
Conditions: cyclisation step, on linear precursor

cyclo[-(L-Phe-D-^Me NAla)4-] (FAFAFAFA; cyclic; N-methyl D-alanines; artificial sequence, peptide tube incorporating D-amino acids, the peptide is a cyclic peptide)
cyclisation yield: 70%
